The text below walks through data of PMC7819943, “Rice protein-binding microarrays: a tool to detect cis-acting elements near promoter regions in rice”.

Chains of the proteins cited; added tags and fusions are not shown.
UniProt Q0JBA9, entry or part of it: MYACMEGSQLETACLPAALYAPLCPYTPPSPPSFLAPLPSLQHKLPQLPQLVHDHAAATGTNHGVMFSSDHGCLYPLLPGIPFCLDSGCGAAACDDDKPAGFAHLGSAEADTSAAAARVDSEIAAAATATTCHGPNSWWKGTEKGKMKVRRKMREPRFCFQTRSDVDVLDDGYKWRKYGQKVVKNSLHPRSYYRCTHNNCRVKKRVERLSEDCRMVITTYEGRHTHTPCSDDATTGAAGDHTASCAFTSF

Some of the results follow.

In the experiment the target is OsWRKY34 (Oryza sativa, UniProt Q0JBA9 1-250). The experiment can be described thus: protein-binding microarray (RPBM); PBS, 2% BSA, 51.3 ng/ul salmon testes DNA, 50 uM zinc acetate, 200 nM TF, 25 C, 1 h; high values mean tight binding. Conditions: protein: recombinant; tags: N-terminal polyhistidine and DsRed monomer fusion (pET32a); label: CyDye5-dUTP incorporated in the synthesized complementary strand; 3' TTTTT single-stranded linker to array surface; dsDNA, one strand shown. Put shortly: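 Binding signal is defined as the fluorescence intensity of each feature in arbitrary units, read on an Axon 4000B scanner. Transcription factors with N-terminal polyhistidine and DsRed fusions came from E. coli BL21-CodonPlus and were purified on Ni–NTA. They were incubated at 200 nM for 1 h at 25 °C on a custom Agilent array that had been made double-stranded with Cy5-dUTP, with 50 µM zinc acetate present, and the array was washed.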
In the case of “CATATTCCTTAGCTATGGGTCTGACACCTGTTCATTCTTCCGGAGTCACCTAGTGCAG”, the binding signal was 13700 fluorescence intensity (a.u.).
The result for “GTCGTTCGCTCTTTTATCCTTTTCGGACAATTTCACTTTCCGGAGTCACCTAGTGCAG” reads 19200 fluorescence intensity (a.u.); that for “AGTTTGTCATGGATCCATCATCCATCGATTTGTTTTCTCTCGGAGTCACCTAGTGCAG”, 12600 fluorescence intensity (a.u.).
The result for “CATATTATAAATCATTTGACTTTTTTCATATTCAAAATTTCGGAGTCACCTAGTGCAG” reads 9090 fluorescence intensity (a.u.); that for “ACATATTCCCTGCACCCTGCTAGCTACCTTGAGTTGCAATCGGAGTCACCTAGTGCAG”, 9180 fluorescence intensity (a.u.); that for “CGCGTCCATCGGATTGATCGATCGGTTGTTGCTGGCCATGCGGAGTCACCTAGTGCAG”, 8170 fluorescence intensity (a.u.).
Then “CCGTGCTCGCCGCCGTCAACTTGGGCTACTTCCTTTTGTGCGGAGTCACCTAGTGCAG”, with 9650 fluorescence intensity (a.u.); and “AAGCCCAGTTCCGGTTTTGACACTATCAAATTTGAGAATTCGGAGTCACCTAGTGCAG”, with 8740 fluorescence intensity (a.u.).
In the case of “TGACCACCATTGCTGCTTCTGCTTCTTCTTGTATGTATACCGGAGTCACCTAGTGCAG”, the binding signal is 17200 fluorescence intensity (a.u.).
Consider “AAAACTTTAATTTTGTTGCTTCCTTTATTGGCTACTCCTACGGAGTCACCTAGTGCAG”, for which the binding signal was 8460 fluorescence intensity (a.u.).
The result for “GTCTGTCATCCCTGTCTGAATTTGGGGAAGCTGGATTCAACGGAGTCACCTAGTGCAG” reads 8350 fluorescence intensity (a.u.); that for “GGTAGTCGGCGGAGGTGGCGAGGTCGAGGGAGGGGAAGATCGGAGTCACCTAGTGCAG”, 8450 fluorescence intensity (a.u.); that for “ATTTGTGTTGTTGTGACTTGTTTTGTGGTATTTTAAACATCGGAGTCACCTAGTGCAG”, 12400 fluorescence intensity (a.u.).
Take “GACCTTTGAGCTGTACTCTTTTCTTTGTCATGGTTTTCTCCGGAGTCACCTAGTGCAG”: the binding signal is 8480 fluorescence intensity (a.u.).
The result for “ATATCAATCTCTTCTCCTCATCGATCCTCAACATCTCCCTCGGAGTCACCTAGTGCAG” reads 8210 fluorescence intensity (a.u.); that for “GAAGTCATGCTTATGTCTGCATCCGTTTCTTGCTTTGACTCGGAGTCACCTAGTGCAG”, 11400 fluorescence intensity (a.u.); that for “CGGTAGTGCGTTAGGTCTTCTCCAAGTCTCTTGGCTTTTACGGAGTCACCTAGTGCAG”, 11100 fluorescence intensity (a.u.).
The result for “CTCCGGGCTCACAGTTTCTTGATTTCCCCATTCTTTTTTCCGGAGTCACCTAGTGCAG” reads 9010 fluorescence intensity (a.u.); that for “GACTTGACCGTTTTTCAATTTCGCTTCGGACAAAAATATGCGGAGTCACCTAGTGCAG”, 9210 fluorescence intensity (a.u.).
The result for “CAAAACATTACAATTCCACGAGTCCGCGACCTGTTCTACTCGGAGTCACCTAGTGCAG” reads 9990 fluorescence intensity (a.u.).
“GCAACACGATCTCGTCGATCTCGTCCTCGACCCTTCAGAACGGAGTCACCTAGTGCAG”: the binding signal is 8850 fluorescence intensity (a.u.).
Then “ATATGGCCACTCGTCCATCTCTCGTTTTCTCCAGCCAGGTCGGAGTCACCTAGTGCAG”, with 8150 fluorescence intensity (a.u.); and “CGTCCTGCTGCTCCCGCTGCATCCGTTACGCACGTCCTCTCGGAGTCACCTAGTGCAG”, with 8620 fluorescence intensity (a.u.); and “GTGCCGTGAGCCGTGTCGACCGTGGTCGCCCTCCAAAGTCCGGAGTCACCTAGTGCAG”, with 9250 fluorescence intensity (a.u.).
The result for “AATTTTGATAGATGTGGGATGTGTTGTAATTTGTAAATTTCGGAGTCACCTAGTGCAG” reads 8270 fluorescence intensity (a.u.).
Then “GCCATCTTGCGAGAAATGGCTGCCTCCGGCGTTGACTCGGCGGAGTCACCTAGTGCAG”, with 11200 fluorescence intensity (a.u.); and “TCTCCTTTGCTGTCGGTGCTCCTCTTCTCCTTCTCTGTGCCGGAGTCACCTAGTGCAG”, with 8040 fluorescence intensity (a.u.); and “TCTTATCTGCTTGTCCATTCCGTTCCCGTCCGCTAGGTCCCGGAGTCACCTAGTGCAG”, with 8180 fluorescence intensity (a.u.).
Take “AAACAGGTAACAATTTATTCTATGTCGGCTTATTATAATCCGGAGTCACCTAGTGCAG”: the binding signal was 8750 fluorescence intensity (a.u.).
The result for “GCCATTCATATGTTTTTCCTATGTTTTGCAATCCTCTGTTCGGAGTCACCTAGTGCAG” reads 13200 fluorescence intensity (a.u.).
The result for “CGTACGCCTCTATATATGCCTCTTCAAACGCCTCTCGCATCGGAGTCACCTAGTGCAG” reads 10000 fluorescence intensity (a.u.); that for “GCCTCACTCATCATCGGGTCCCGCATCACTTTTGTTTGAACGGAGTCACCTAGTGCAG”, 9340 fluorescence intensity (a.u.); that for “TTCGCCGTCGCCTTGCTTAGCCTAGGGTTTTTCTCACACTCGGAGTCACCTAGTGCAG”, 9970 fluorescence intensity (a.u.).
The result for “TTTTCCCTTTTACTCCATCCCATTTTGATCATCCCCTAAACGGAGTCACCTAGTGCAG” reads 9320 fluorescence intensity (a.u.); that for “CTCATTGTTGTTGTGTTGTTGCGTTTGGTTTGGTGTGCTCCGGAGTCACCTAGTGCAG”, 8510 fluorescence intensity (a.u.).
With “ACTTATATTTTTTTAACGTTTGATTGTTCGTCTTATTAAACGGAGTCACCTAGTGCAG”, the binding signal is 9470 fluorescence intensity (a.u.).
The result for “AGAACGAACTCAATGAATATATTACCTATTTGCATTTTGCCGGAGTCACCTAGTGCAG” reads 8540 fluorescence intensity (a.u.); that for “CCCTCGCGCCTCCGCCACCTCCTCTGTCGCCGCCATCGCCCGGAGTCACCTAGTGCAG”, 13400 fluorescence intensity (a.u.); that for “ACATCCCAAGCTTCCCAAGCACACACTGTTTTAGTGTTCACGGAGTCACCTAGTGCAG”, 10100 fluorescence intensity (a.u.).
The result for “AGAGAGAGACTCAGGGAGGGTTTCGTTTCCGTTTCTTGCGCGGAGTCACCTAGTGCAG” reads 9520 fluorescence intensity (a.u.); that for “ACTCACTTTAGATTTTTTTTTCCAACATGATCGTCTGTCTCGGAGTCACCTAGTGCAG”, 11800 fluorescence intensity (a.u.); that for “TTTATAGAGGTCATCCTCGTTTACTTAGCCCATTTCATACCGGAGTCACCTAGTGCAG”, 9640 fluorescence intensity (a.u.).
